Measured values published in patent publication US8618054B2, “Interleukin-1 receptor antagonists, compositions, and methods of treatment” (Valorisation-Rechereche Société en Commandite, priority 2004, dated 2013).
At least one structure is not confirmed: it was looked up by name or label, or the drawing left a doubt. Where a SMILES comes first, the peptide text is derived from it.

The molecules below were run against T1, IL-1R/IL-1RacP receptor (Sus scrofa, UniProt A0A5G2QSI4) (assay: IL-1-induced PGE2 synthesis in piglet brain microvascular endothelial cells). Details: Table 4; read-out: PGE2 synthesis in endothelial cells (porcine) IC50.
T1 construct: endogenous in cells; host or cells: piglet brain microvascular endothelial cells
T1 sequence (A0A5G2QSI4 21-572): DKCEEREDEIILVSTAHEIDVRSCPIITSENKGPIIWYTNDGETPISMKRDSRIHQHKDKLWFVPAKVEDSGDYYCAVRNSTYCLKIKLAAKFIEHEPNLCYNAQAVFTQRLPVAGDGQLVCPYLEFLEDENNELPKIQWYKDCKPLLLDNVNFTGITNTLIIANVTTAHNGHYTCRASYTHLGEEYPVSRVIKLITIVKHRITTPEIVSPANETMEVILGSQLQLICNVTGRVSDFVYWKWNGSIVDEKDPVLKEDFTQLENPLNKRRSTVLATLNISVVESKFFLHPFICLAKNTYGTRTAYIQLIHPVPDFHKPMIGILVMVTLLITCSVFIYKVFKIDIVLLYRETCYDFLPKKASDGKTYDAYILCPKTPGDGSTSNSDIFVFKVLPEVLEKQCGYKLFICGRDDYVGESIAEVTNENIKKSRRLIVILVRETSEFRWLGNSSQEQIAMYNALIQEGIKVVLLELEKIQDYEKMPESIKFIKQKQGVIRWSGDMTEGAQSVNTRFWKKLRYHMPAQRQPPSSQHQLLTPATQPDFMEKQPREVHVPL
Type: cell-based
Experimental: It is well known in the art that IL-1 induces the synthesis of prostaglandin E2 (PGE2) in endothelial cells and/or chondrocytes in vitro. Therefore, human chondrocytes and piglet brain microvascular endothelial cells were pre-incubated 45-60 minutes at 37° C. with peptide API-101 (^10−6M) and human IL-1 (10 ng/ml) was added in the growing medium. After 24 hours of incubation, growth medium was collected and evaporated. PGE2 measurement was determined by RIA assay with a commercial kit (Cederlane).

Structure (SMILES)	IC50
CC(C)C[C@@H](NC(=O)[C@@H](CCC(=O)O)NC(=O)[C@H]1CCCN1C(=O)[C@H](NC(=O)[C@@H](Cc1ccc(O)cc1)NC(=O)[C@H](N)CCCCN)[C@H](C)O)C(=O)N[C@H](C)C(N)=O [API-101.114, KYTPELA] (HELM PEPTIDE1{[dK].[dY].[dT].[dP].[dE].[dL].[dA].[am]}$$$$V2.0; N-terminus and C-terminus assumed)	0.002 nM
CC(C)C[C@@H](NC(=O)[C@@H](CCC(=O)O)NC(=O)[C@H]1CCCN1C(=O)[C@H](NC(=O)[C@@H](Cc1c[nH]c2ccccc12)NC(=O)[C@H](N)CCCNC(=N)N)[C@H](C)O)C(=O)N[C@H](C)C(N)=O [API-101.116, RWTPELA] (HELM PEPTIDE1{[dR].[dW].[dT].[dP].[dE].[dL].[dA].[am]}$$$$V2.0; N-terminus and C-terminus assumed)	0.013 nM
CC(C)C[C@@H](NC(=O)[C@@H](CC(=O)O)NC(=O)[C@H]1CCCN1C(=O)[C@H](NC(=O)[C@@H](Cc1ccc(O)cc1)NC(=O)[C@H](N)CCCNC(=N)N)[C@H](C)O)C(=O)N[C@H](C)C(N)=O [API-101.117, RYTPDLA] (HELM PEPTIDE1{[dR].[dY].[dT].[dP].[dD].[dL].[dA].[am]}$$$$V2.0; N-terminus and C-terminus assumed)	0.01 nM
